Publication PMC2518108

By UniProt entry, the sequences of proteins in these tests, tags left out. Where a name states a change or a piece, a line headed by the entry shows the natural chain unless it says otherwise. Residues count along the entry.
UniProt A4K8J2: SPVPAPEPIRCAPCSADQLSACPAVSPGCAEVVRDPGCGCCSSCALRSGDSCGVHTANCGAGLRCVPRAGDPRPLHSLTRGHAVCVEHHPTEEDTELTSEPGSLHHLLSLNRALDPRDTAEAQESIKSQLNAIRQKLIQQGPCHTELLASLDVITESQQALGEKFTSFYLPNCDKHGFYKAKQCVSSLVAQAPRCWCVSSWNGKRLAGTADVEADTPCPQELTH
UniProt P05019, residues 49-118: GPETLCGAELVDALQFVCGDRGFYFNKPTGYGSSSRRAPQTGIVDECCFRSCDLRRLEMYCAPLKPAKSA

Molecular target: zebrafish IGFBP-1b (zebrafish) (UniProt A4K8J2)
Assay: far-Western, overlay or dot blot; western ligand blotting: 0.3 ug purified IGFBP-1a or -1b on SDS-PAGE under non-reducing condition, blotted and probed with DIG-labeled IGF-1; both purified

Substance: DIG-labeled IGF-1 (from UniProt P05019 49-118) (ligand)
- binding: binds

Results are given in words; binding and its absence hold for the method and conditions named. A result given as binding can be weak or reduced; the word gives no strength.
